In PMC8153610, “Oleacein Intestinal Permeation and Metabolism in Rats Using an In Situ Perfusion Technique” (Pharmaceutics, 2021):

Settings: rat, in vivo, 60 min, pH 7
Method: The transport medium (TM; pH 7, 9.7 g/L HBSS buffered with HEPES 10 mM) was used to infuse the compounds via the intestine. […] Red phenol was assayed at 0.1 mg/mL. The stability of these test compounds, sampled at different times, was monitored in the perfusion solution at 37 °C for 60 min.
Differences were considered significant at p < 0.05.

- Absorption (%): 43.96 ± 7.58%
Structure (SMILES): COc1ccc2cc([C@H](C)C(=O)O)ccc2c1 [Naproxen]
